# The campaign covered roughly 360,000 compounds. About 610 (0.17%) were called active. The inconclusive results got no clear call from the source; some entries with a clear call stand among them for comparison. Rule as the data show it: active = inhibition above about 30%; inconclusive = no clear call, values can overlap the other calls; inactive = below that.
# Tested on: Botulinum neurotoxin type A light chain protease (Clostridium botulinum A str. ATCC 3502)
# Test: blockers of BoNT/A LC substrate cleavage – biochemical, flow cytometry, MLPCN library, primary screen (AID 588499); also: plate controls were buffer without enzyme for full effect and enzyme alone for no effect
# Conditions: multiplex microsphere protease substrate cleavage, at 10 µM, active compounds read high
row,Structure (SMILES),inhibition
1,CCN1CCN(c2ccc(NC(=O)c3ccco3)cc2)CC1,inactive: 0.1%
2,CN(C)S(=O)(=O)c1cccc(NC(=S)Nc2cc(Cl)cc(Cl)c2)c1,inconclusive: -1.9%
3,O=C(c1ccccc1)c1ccccc1C(=O)N1CCOCC1,inconclusive: 2.2%
4,Cc1cccc2c1c(N=NC(N)=S)c(O)n2C1OC(CO)C(O)C(O)C1O (centres undefined),inactive: -3.6%
5,Cc1ccc2oc(NC3=NC4(CCCC4)C4=C(CCCC4=O)N3)nc2c1,inactive: -0.3%
6,O=C(NCc1cccnc1)c1ccc2c(c1)OCO2,inconclusive: 0.1%
7,CC(C)(C)c1cc(CP(=O)(c2ccccc2)c2ccccc2)cc(C(C)(C)C)c1O,inconclusive: -6.2%
8,COc1cccc(C(=O)N2CCN(C3CCC(c4ccccc4)CC3)CC2)c1OC (centres undefined),inactive: -0.6%
9,CCOC(=O)c1sc(=S)n(-c2ccccc2)c1C,inactive: 0.7%
10,COc1ccc(CC(=O)n2nc(-c3ccc(Cl)cc3)nc2NCc2ccco2)cc1,inconclusive: -3%
11,CC1(C)CC(=O)C2=C(C1)N(Cc1ccco1)C(=O)C2(NC(=O)c1cccnc1)C(F)(F)F (centres undefined),inconclusive: -1.3%
12,COCc1cc(C)nc2sc(C(=O)OC(C)C)c(N)c12,inactive: 0.3%
13,Cc1cc(-c2nc3cc(F)ccc3s2)ccc1N,inactive: 0.1%
14,CC(C)c1ccc(NC(=O)Cn2c(=O)oc3cccnc32)cc1,inconclusive: 16.4%
15,CN1/C(=C/C=C/c2n(C)c3cc([N+](=O)[O-])c([N+](=O)[O-])cc3[n+]2C)C(C)(C)c2ccccc21,inconclusive: 0.1%
16,COCCNc1nnc(SCC(=O)c2c[nH]c3ccccc23)s1,active: 52.1%
17,CC(C)C(=O)Nc1cccc(NC(=S)NC(=O)c2ccc([N+](=O)[O-])cc2)c1,inconclusive: -1.5%
18,Cn1c(=O)cc(OCCCC(=O)N2CCN(c3ccccn3)CC2)c2ccccc21,inconclusive: 3.1%
19,CC1Cc2cc(/C(O)=C3/C(=O)C(=O)N(CCCn4ccnc4)C3c3ccc([N+](=O)[O-])cc3)ccc2O1 (centres undefined),inactive: 3%
20,Cc1cc2oc(=O)cc(CN3CCCc4ccccc43)c2cc1C,inconclusive: 25.6%
21,COc1ccccc1NS(=O)(=O)c1cc(C(=O)N2CC(C)CC(C)C2)ccc1C (centres undefined),inconclusive: 0.4%
22,O=C(Nc1ccc(C(F)(F)F)cc1)c1cccnc1N1CCOCC1,inconclusive: 7.4%
23,CCn1nc(C)cc1C(=O)Sc1ccc(C)cc1,inconclusive: -12.7%

row,Structure (SMILES),inhibition
1,O=c1c2ccc(Cl)cc2[nH]c(=S)n1CCC1=CCCCC1,inactive: -0.4%
2,COc1ccc(/C=C2\SC(=S)N(Cc3cccnc3)C2=O)cc1C,active: 37.9%
3,CCOC(=O)CSc1nc2ccccc2n1CC(=O)N(C(C)C)C(C)C,inconclusive: 19.3%
4,CCn1nc(C(=O)NCCc2ccc(S(N)(=O)=O)cc2)c2ccccc2c1=O,inconclusive: -2.8%
5,CCCCN1C[C@H](C)[C@@H](CC(=O)NCc2ccccc2)C1=O,inactive: -1%
6,CC(=NCC1CCCO1)c1c(O)n(-c2ccccc2C)c(=O)[nH]c1=O (centres undefined),inconclusive: -71.9%
7,CCCCN(C)C/C(O)=C(\C#N)c1nc(-c2ccccc2)cs1,inconclusive: 2.1%
8,Cc1cc(NC(=O)CSc2nnc(-c3cccnc3)n2C)no1,inconclusive: 4.2%
9,COc1nnc(-c2ccc(N3CCCCC3)c(NC(C)=O)c2)c2ccccc12,inconclusive: 3.5%
10,CC1=CC(c2ccc(Cl)cc2)n2nc(NS(=O)(=O)c3ccc(C)cc3)nc2N1 (centres undefined),inactive: 0.7%
11,CCCN(CCC)S(=O)(=O)c1ccc(NC(=O)Cc2cccs2)cc1,inconclusive: -5.6%
12,COc1cc2nc(/C=C/c3cc(OC)c(OC)c(OC)c3)sc2cc1SC,active: 54.3%
13,COc1ccc(-n2cnnc2SCc2csc(-c3ccccc3)n2)cc1,inconclusive: -0.7%
14,Cc1nc2ccccc2c(=O)n1-c1ccc(F)c(NS(=O)(=O)c2ccccc2F)c1,inconclusive: -1.1%
15,Cc1ccc(/C=N/n2c(-c3ccco3)n[nH]c2=S)cc1,inconclusive: 1.5%
16,CCn1c(=S)[nH]c2cc(Cl)ccc21,inconclusive: -2.5%
17,CCn1c(=O)c2c(O)cc(=O)oc2c2ccccc21,inconclusive: -1.5%
18,Cc1cc(C(=O)NCc2ccccc2Br)no1,inconclusive: -4.6%
19,O=[N+]([O-])c1ccc(N2N=C(c3ccco3)CC2c2ccccc2)cc1 (centres undefined),active: 32.4%
20,Cc1ccc(NC(=O)c2c(C)noc2-c2snnc2C)cc1,inconclusive: -48.1%
21,O=c1oc2cc(O)ccc2cc1-c1nc2c(s1)CCc1ccccc1-2,active: 47.3%
22,CC(=O)Oc1ccc(C(=O)[C@H]2[C@H]3C(=O)N(c4ccc(C)cc4C)C(=O)[C@H]3[C@@H]3C=CC=NN32)cc1,inconclusive: 1.2%
23,Cc1cc(C(=O)N2CCc3ccccc3C2)c(C)o1,inconclusive: 1.6%

row,Structure (SMILES),inhibition
1,O=C(CCNS(=O)(=O)c1ccc(Br)cc1)NCCCSc1ccccc1,inactive: -0.5%
2,Nc1nnc(CC(=O)N/N=C/c2ccc(-c3ccc(F)cc3)o2)s1,inactive: 3.5%
3,CCN(CC)c1ccc(/C=N/NC(=O)CCC(=O)NCc2ccccc2)c(O)c1,inactive: 0.3%
4,Cc1ccc(NC(=O)c2c(F)cccc2Cl)cc1NS(C)(=O)=O,inconclusive: 0.6%
5,O=C(CC(SCCO)c1ccc2c(c1)OCO2)c1ccco1 (centres undefined),inactive: 0.5%
6,N=c1c2c3c(sc2nc2n1CCC2)CCCC3,inconclusive: -3.6%
7,CCOC(=O)CCNC(=O)N1CCCC(C(=O)c2cc(C)c(OC)c(C)c2)C1 (centres undefined),inactive: -0.1%
8,COc1ccc(C(=O)N[C@H](C(=O)OCc2nc3ccsc3c(=O)[nH]2)C(C)C)cc1,inactive: -50.4%
9,O=[N+]([O-])c1ccc(CSc2ccc(S(=O)(=O)N3CCCCCC3)cn2)cc1,inactive: -0.3%
10,COC(=O)n1c(=O)oc2cc(S(=O)(=O)N3CCCCC3)ccc21,inconclusive: 3.3%
11,COc1ccc(OC)c(Nc2nc(-c3cccs3)cs2)c1,inconclusive: -2.4%
12,COc1ccc2nc3cc([N+](=O)[O-])ccc3c(NNc3ccc([N+](=O)[O-])cc3)c2c1,inconclusive: -0.8%
13,COc1ccc(NC(=O)CCCOc2ccc(Cl)c(C)c2)cc1S(=O)(=O)N1CCOCC1,inactive: 0%
14,CCOC(=O)CNC(=O)N1CCc2ccc(NC(=O)c3ccccc3Cl)cc2C1,inconclusive: 0.5%
15,CC(=O)Nc1cc(-c2ccc(S(C)(=O)=O)cc2)cn2c(-c3ccc(F)c(Cl)c3)cnc12,inactive: 0%
16,COC(=O)c1cc2sccc2n1Cc1nc(-c2ccc(OC)cc2)oc1C,inconclusive: -1.1%
17,O=C(CCn1c(=O)c2sccc2n(CC(=O)NCc2ccco2)c1=O)NCc1ccccc1,inactive: -4.2%
18,Cn1c(CN2CCN(C(=O)c3ccco3)CC2)nc2cc([N+](=O)[O-])ccc21,inactive: -5.1%
19,CCCCC(CC)C1OCC(CN2CCCC2)O1 (centres undefined),inconclusive: 7.2%
20,COc1ccc(/C=C2\SC(=S)N(CCC(=O)N(CCO)Cc3ccccc3)C2=O)cc1OC,inactive: 11.7%
21,CC1C(=O)C(C)(C)C(=O)OC1c1ccccc1 (centres undefined),inconclusive: 14.1%
22,COc1ccc(/C=N/Nc2nn3cnnc3c3ccccc23)cc1,inconclusive: -16.3%
23,COCCN1C(=O)N[C@@H](c2cccc(F)c2)C(C(=O)OC)=C1C,inactive: 0.1%

# Molecules above containing an NH in an aromatic ring (6):
row,Structure (SMILES),inhibition
16,COCCNc1nnc(SCC(=O)c2c[nH]c3ccccc23)s1,active: 52.1%
1,O=c1c2ccc(Cl)cc2[nH]c(=S)n1CCC1=CCCCC1,inactive: -0.4%
6,CC(=NCC1CCCO1)c1c(O)n(-c2ccccc2C)c(=O)[nH]c1=O (centres undefined),inconclusive: -71.9%
15,Cc1ccc(/C=N/n2c(-c3ccco3)n[nH]c2=S)cc1,inconclusive: 1.5%
16,CCn1c(=S)[nH]c2cc(Cl)ccc21,inconclusive: -2.5%
8,COc1ccc(C(=O)N[C@H](C(=O)OCc2nc3ccsc3c(=O)[nH]2)C(C)C)cc1,inactive: -50.4%

# The results go on:

row,Structure (SMILES),inhibition
1,COc1ccc(-c2oc3cc(O)c(OC)c(O)c3c(=O)c2OC)cc1O,inactive: 0.1%
2,CC(C)C(NC=C1C(=O)OC(C)(C)OC1=O)C(=O)O (centres undefined),inconclusive: -3.5%
3,COc1ccc(N2CC(C(=O)N[C@@H](CC(C)C)C(=O)NC3CCCCC3)CC2=O)cc1 (some centres undefined),inactive: 0.2%
4,Cc1ccc2c3c(cccc13)-c1ccccc1C2=O,active: 73.9%
5,O=C(O)c1ccc(-n2nnnc2SCc2ccccc2Br)cc1,inactive: -0.9%
6,CC1(C)SC(=S)N(/N=C/c2cccnc2)C1N(O)C(=O)Nc1ccccc1 (centres undefined),inconclusive: -41.3%
7,COC(=O)c1ccc(/C=N/N2CCN(Cc3ccccc3Cl)CC2)cc1,inconclusive: -47.8%
8,O=C(CCN1C(=O)C2C3CCC(C3)C2C1=O)OCC(=O)c1ccc(Cl)cc1 (centres undefined),inconclusive: -0.4%
9,CC(=O)C1=C(O)C(=O)N(c2ccc(C(=O)O)cc2)C1c1ccc([N+](=O)[O-])cc1 (centres undefined),inactive: -1.5%
10,C=CCn1c(CCNC(=O)c2cccs2)nnc1SCC(=O)Nc1cccc(Cl)c1C,inconclusive: 1.9%
11,COC(=O)c1c(-c2snnc2C)n[nH]c1C,inconclusive: -4.9%
12,COc1ccc(C(=O)Nc2nnc([C@@H]3C[C@H](O)[C@@H](CO)O3)s2)cc1,inactive: -0.2%
13,CC(=O)c1ccccc1NC(=O)COC(=O)CSCC(=O)Nc1cc(C)on1,inactive: -0.6%
14,CC(C)c1nc2sc3c(=S)nc[nH]c3c2c2c1CCC2,inconclusive: 12.7%
15,CN1N=C2c3ccccc3CCCC2C1c1ccc(F)cc1 (centres undefined),inconclusive: 15.6%
16,CC(=O)c1ccc(OCc2ncc(C(F)(F)F)cc2Cl)cc1,inconclusive: 1.8%
17,CC(C)(C)C(=O)c1sc2nc(-c3cccs3)cc(C(F)(F)F)c2c1N,active: 33.9%
18,CCOC(=O)C1CCN(C(=O)C(=O)c2cn(CC(=O)N3CCCCCC3)c3ccccc23)CC1,active: 44.2%
19,CC(C)C[C@H]1CN([C@@H](Cc2ccccc2)CN2CCC[C@@H]2CN2C(=O)C(=O)NC[C@@H]2Cc2ccccc2)C(=O)C(=O)N1CC1CCCCC1,inactive: -0.5%
20,O=C(COC(=O)c1cncc(Br)c1)NC1CCCCCC1,active: 31.2%
